No constants are given. Whether binding was seen depends on the method and setting.
What was measured:
HEK293-6E/domain3 = test: flow cytometry on HEK293-6E cells expressing mouse CD4 with human domain 3, isotype control as reference
HEK293-6E/domain5 = test: flow cytometry on HEK293-6E cells expressing mouse CD4 with human domain 5, isotype control as reference
HEK293-6E/domain4 = test: flow cytometry on HEK293-6E cells expressing mouse CD4 with human domain 4, isotype control as reference

binding (HEK293-6E/domain3)	binding (HEK293-6E/domain5)	binding (HEK293-6E/domain4)	Binder
no binding	no binding	–	Ibalizumab (antibody, V domains shown) VH: QVQLQQSGPEVVKPGASVKMSCKASGYTFTSYVIHWVRQKPGQGLDWIGYINPYNDGTDYDEKFKGKATLTSDTSTSTAYMELSSLRSEDTAVYYCAREKDNYATGAWFAYWGQGTLVTVSS VL: DIVMTQSPDSLAVSLGERVTMNCKSSQSLLYSTNQKNYLAWYQQKPGQSPKLLIYWASTRESGVPDRFSGSGSGTDFTLTISSVQAEDVAVYYCQQYYSYRTFGGGTKLEIKR
no binding	no binding	no binding	Tregalizumab (antibody, V domains shown) VH: EEQLVESGGGLVKPGGSLRLSCAASGFSFSDCRMYWLRQAPGKGLEWIGVISVKSENYGANYAESVRGRFTISRDDSKNTVYLQMNSLKTEDTAVYYCSASYYRYDVGAWFAYWGQGTLVTVSS VL: DIVMTQSPDSLAVSLGERATINCRASKSVSTSGYSYIYWYQQKPGQPPKLLIYLASILESGVPDRFSGSGSGTDFTLTISSLQAEDVAVYYCQHSRELPWTFGQGTKVEIKR
no binding	no binding	no binding	Zanolimumab (antibody, V domains shown) VH: QVQLQQWGAGLLKPSETLSLTCAVYGGSFSGYYWSWIRQPPGKGLEWIGEINHSGSTNYNPSLKSRVTISVDTSKNQFSLKLSSVTAADTAVYYCARVINWFDPWGQGTLVT VL: DIQMTQSPSSVSASVGDRVTITCRASQDISSWLAWYQHKPGKAPKLLIYAASSLQSGVPSRFSGSGSGTDFTLTISSLQPEDFATYYCQQANSFPYTFGQGTKLEIK

From patent US20220241330A1
